The assay has as its target GST-MDM2 (full length) (UniProt P23804). Description: pull-down; purified GST-MDM2 incubated with purified FLAG-p53 and an increasing amount of purified FLAG-HA-CSIG overnight at 4 °C; Glutathione Sepharose; washed with BC100 buffer; western blot; both purified. A general note: A western blot detects proteins with antibodies after separation by electrophoresis.

Data on 1 substance can be found in PMC5095888.

No constants are given. Whether binding was seen depends on the method and setting. Some entries that bind do so weakly or less than the wild type.

For FLAG-p53 (from UniProt P04637 1-393), the binding result was “binds”.
